# “And” between values parts separate entries of the source, which are not always exact repeats. Equal values may be shown once. Where a name gives a salt, the structure may show the parent alone. The list shows a part of the results. Repeats in this data set agree poorly, so a single value says little.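 HEK293T cells were given each compound shortly before transfection with a reporter in which red mCherry is followed by the SARS-CoV-2 frameshift element and then GFP in the −1 frame, so GFP appears only after frameshifting.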
# Key:
# [1] = test system: SARS-CoV-2 -1 PRF reporter mCherry-FSE-GFP(-1); assay: mCherry (red) intensity as percent of control; higher = higher upstream reporter expression; conditions: 10 µM; 24 h; HEK293T
# [2] = test system: SARS-CoV-2 -1 PRF reporter mCherry-FSE-GFP(-1); assay: percent effect, decrease of GFP/mCherry ratio (-1 PRF reporter) relative to controls; higher = stronger frameshift inhibition; conditions: 10 µM; 24 h; HEK293T
Compound,mCherry [1],percent effect [2]
CCOC(=O)[C@@H](N)Cc1ccc(O)c(O)c1 [etilevodopa],107%,-2.81%
COC(=O)/C=C/C(=O)OC,155%,-1.89%
CC(O)(P(=O)(O)O)P(=O)(O)O [Etidronate],75.5%,-4.17%
CC/C(=C(\c1ccc(O)cc1)c1ccc(OCCN(C)C)cc1)c1ccccc1 [afimoxifene],48%,-7.44%
CCCc1c2oc(C(=O)O)cc(=O)c2cc2c(=O)cc(C(=O)O)n(CC)c12 [nedocromil],103%,-1.11%
O=C1c2cc(Cl)ccc2OC2CCON12 (configuration not stated) [seclazone],107%,0.12%
CC[C@@H]1/C=C(\C)C[C@H](C)C[C@H](OC)[C@H]2O[C@@](O)(C(=O)C(=O)N3CCCC[C@H]3C(=O)O[C@H](/C(C)=C/[C@@H]3CC[C@H](Cl)[C@H](OC)C3)[C@H](C)[C@@H](O)CC1=O)[C@H](C)C[C@@H]2OC [Pimecrolimus],95.6%,0.387%
COc1cc(N)c(Cl)cc1C(=O)NC1CCN(Cc2ccccc2)CC1 [clebopride],94.3%,-2.25%
NC(=O)[C@@H]1CCCN1C(=O)[C@H](Cc1c[nH]cn1)NC(=O)[C@@H]1CCC(=O)N1,85.3%,-1.6%
Cc1nc2ccccn2c(=O)c1CCN1CCC(C(=O)c2ccc(F)cc2)CC1 [pirenperone],101%,-0.52%
CCOC(=O)[C@H](CCc1ccccc1)N[C@H]1CCCN2CCC[C@@H](C(=O)O)N2C1=O [Inhibace],110%,-1.38%
CC(C)(C)N1CCC(c2ccccc2)(c2ccccc2)CC1 [budipine],117%,-2.39%
C/C(=C\C(=O)OCCCCCCCCC(=O)O)C[C@@H]1OC[C@H](C[C@@H]2O[C@H]2[C@@H](C)[C@H](C)O)[C@@H](O)[C@H]1O [mupirocin],95.9% and 95.4%,-4.61% and -1.07%
CCCCC[C@H](O)CC[C@@H]1[C@H]2Cc3cccc(OCC(=O)O)c3C[C@H]2C[C@H]1O [Treprostinil],86.2%,-6.52%
C#C[C@]1(O)CC[C@H]2[C@@H]3CCc4cc(OC)ccc4[C@H]3CC[C@@]21C [mestranol],102%,-11.4%
O=C(CCCCCl)NNC(=O)N1Cc2ccccc2Oc2ccc(Cl)cc21 [pinadoline],83.5%,-10.5%
NC(Cc1ccc(Cl)cc1)C(=O)O (configuration not stated) [fenclonine],118%,0.466%
O=C(O)[C@H](CC(=O)N1C[C@H]2CCCC[C@H]2C1)Cc1ccccc1 [mitiglinide],114%,-3.3%
CNc1cc(OC)c(C(=O)NC2CCN(Cc3ccccc3)C2C)cc1Cl (configuration not stated) [nemonapride],90.3%,0.39%
COc1ccc(C(=O)N2CCN(c3ccc4c(c3)CCC(=O)N4)CC2)cc1OC [vesnarinone],116%,-4.6%
CN(Cc1cc(Br)cc(Br)c1N)C1CCCCC1 [bromhexine],110% and 87.6%,0.113% and -1.16%
Nc1nc2ccc(OC(F)(F)F)cc2s1 [Riluzole·HCl],92.1%,11.7%
CC(C)[N+](C)(CCOC(=O)C1c2ccccc2Oc2ccccc21)C(C)C [propantheline bromide],116%,-6.46%
CCOc1cc(-c2nccc3cc(OC)c(OC)cc23)cc(OCC)c1OCC [octaverine],80%,-6.89%
Cc1cccc(C)c1NC(=O)CN1CCN(CCCC(c2ccc(F)cc2)c2ccc(F)cc2)CC1 [lidoflazine],36.6%,-10.2%
CC(=O)Nc1ccc(OCC(O)CNC(C)C)cc1 (configuration not stated) [practolol],103%,-4.14%

# Entries of single compounds, quoted from the list. Order of values: mCherry [1]	percent effect [2]
# C#C[C@]1(O)CC[C@H]2[C@@H]3CCc4cc(OC)ccc4[C@H]3CC[C@@]21C [mestranol] in the list: 102%	-11.4%
# CCCCC[C@H](O)CC[C@@H]1[C@H]2Cc3cccc(OCC(=O)O)c3C[C@H]2C[C@H]1O [Treprostinil] in the list: 86.2%	-6.52%
# CNc1cc(OC)c(C(=O)NC2CCN(Cc3ccccc3)C2C)cc1Cl (configuration not stated) [nemonapride] in the list: 90.3%	0.39%
# COC(=O)/C=C/C(=O)OC in the list: 155%	-1.89%

# (list continues)

Compound,mCherry [1],percent effect [2]
O=C(O)COc1nn(Cc2ccccc2)c2ccccc12 [bendazac],96.9%,-0.513%
CC(=O)OCC1=C(C(=O)O)N2C(=O)[C@@H](NC(=O)CSc3ccncc3)[C@H]2SC1,128%,1.86%
Cc1cc(Cc2cnc(N)nc2N)c2cccnc2c1N(C)C [baquiloprim],78.4%,-4.15%
COc1ccc(C[C@H](N)C(=O)N[C@H]2[C@@H](O)[C@H](n3cnc4c(N(C)C)ncnc43)O[C@@H]2CO)cc1,128%,-11.3%
CC1=C(/C=C/C(C)=C/C=C/C(C)=C/C=C/C=C(C)/C=C/C=C(C)/C=C/C2=C(C)CCCC2(C)C)C(C)(C)CCC1,67.4%,0.347%
CO[C@H]1/C=C/O[C@@]2(C)Oc3c(C)c(O)c4c(O)c(c(/C=N/N5CCN(C)CC5)c(O)c4c3C2=O)NC(=O)/C(C)=C\C=C\[C@H](C)[C@H](O)[C@@H](C)[C@@H](O)[C@@H](C)[C@H](OC(C)=O)[C@@H]1C [Rifampicin],71.8%,-2.54%
CC(=O)NO [acetohydroxamic acid],121%,-0.795%
C[C@@H](O[C@H]1OCCN(Cc2n[nH]c(=O)[nH]2)[C@H]1c1ccc(F)cc1)c1cc(C(F)(F)F)cc(C(F)(F)F)c1 [Aprepitant],127% and 107%,-2.35% and -2.85%
Nc1ccc(C(=O)O)c(O)c1 [4-Aminosalicylic acid],73.8%,0.0631%
CN(C)CCOC(c1ccc(Cl)cc1)c1ccccn1 (configuration not stated) [carbinoxamine],102%,-0.211%
Cc1cc(=O)oc2cc(OS(=O)(=O)O)c(OS(=O)(=O)O)cc12 [sulmarin],57.3%,1.48%
CCCCC(=O)O[C@H]1CC[C@H]2[C@@H]3CCc4cc(O)ccc4[C@H]3CC[C@]12C,168%,20.9%
CCCCC[C@H](O)/C=C/[C@@H]1[C@@H](C/C=C\CCCC(=O)O)[C@@H](O)C[C@H]1O [Dinoprost Tromethamine],119%,-1.46%
CCN[C@H]1CN(CCCOC)S(=O)(=O)c2sc(S(N)(=O)=O)cc21 [brinzolamide],98.4% and 99.1%,0.7% and -5.43%
NC(=O)N[C@@H](CCC(=O)O)C(=O)O [Carbaglu],106%,-4.04%
Nc1cc(C(Cl)=C(Cl)Cl)c(S(N)(=O)=O)cc1S(N)(=O)=O [clorsulon],93.6%,-12%
O=C(O)c1cc(=O)c2ccccc2o1 [chromocarb],79%,-1.99%
CCN(CC)CCNc1ccc(CO)c2sc3ccccc3c(=O)c12 [hycanthone],92.6%,-4.45%
CN(C)CC[C@@H](c1ccc(Cl)cc1)c1ccccn1 [dexchlorpheniramine],82%,-9.81%
CCc1[nH]c(=O)[nH]c1C(=O)c1ccncc1 [piroximone],104%,-1.99%
CC(=O)N(c1onc(C)c1C)S(=O)(=O)c1ccc(N)cc1,105%,1.88%
COc1cc(NS(=O)(=O)c2ccc(N)cc2)ncn1 [sulfamonomethoxine],112%,-2.73%
COc1cc2[nH]c(C)c(CCN3CCN(c4ccccc4)CC3)c2cc1OC [oxypertine],74.9%,-3.04%
NS(=O)(=O)c1ccc(S(=O)(=O)Nc2cccc3c(Cl)c[nH]c23)cc1 [indisulam],107%,0.284%
COc1c(N2C[C@@H]3CCCN[C@@H]3C2)c(F)cc2c(=O)c(C(=O)O)cn(C3CC3)c12,110%,2.51%
